In doi:10.1101/755322 (bioRxiv, 2019):
Results are given in words; binding and its absence hold for the method and conditions named.

Target: T1, hCCL5 F12A (human), P13501
T1 chain: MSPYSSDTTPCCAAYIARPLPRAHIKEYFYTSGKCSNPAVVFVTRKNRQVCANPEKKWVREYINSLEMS
Experiment: NMR 1H-15N HSQC spectra
Settings: remark: other sources report otherwise

B1: hCCL5 F12A, P13501 24-91 (protein)
chain: T1 chain
- binding: no binding
